± gives the uncertainty stated by the source. Many entries were measured with a wide error.
Assay: self-splicing fitness, log relative to wild type (ln ratio); higher = more splicing; Tetrahymena group I intron in knt gene, E. coli kanamycin selection, DiMSum; sequences stand for … in CUCUCU…GGAGGGAAAAGUUAUCAGGCAUGCACCUGGUAGCUAGUCUUUAAACCAAUAGAUUGCAUCGGUUUAAAAGGCAAGACCGUCAAAUUGCGGGAAAGGGGUCAACAGCCGUUCAGUACCAAGUCUCAGGGGAAACUUUGAGAUGGCCUUGCAAAGGGUAUGGUAAUAAGCUGACGGACAUGGUCCUAACCACGCAGCCAAGUCCUAAGUCAACAGAUCUUCUGUUGAUAUGGAUGCAGUUCACAGACUAAAUGUCGGUCGGGGAAGAUGUAUUCUUCUCAUAAGAUAUAGUCGGACCUCUCCUUAAUGGGAGCUAGCGGAUGAAGUGAUGCAACACUGGAGCCGCUGGGAACUAAUUUGUAUGCGAAAGUAUAUUGAUUAGUUUUGGAGUACUCGUGGUCG
In short: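 Pooled colonies went to amplicon sequencing on an Illumina HiSeq 2500 after six replicate transformations. The plates were LB agar with 100 μg/mL carbenicillin, 50 μM IPTG and 0.2% rhamnose, with or without 25 μg/mL kanamycin, incubated overnight at 37°C or 30°C. The E. coli BL21(DE3) library had all eight P1ex-region intron nucleotides randomised, the intron placed in the knt kanamycin-resistance gene on pET-22b(+). DiMSum fitness is the error-weighted combination of replicate fold changes, kanamycin against none, normalised to wild type.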

Sequence	self-splicing fitness (ln) (30 °C)	self-splicing fitness (ln) (37 °C)
GCGGAGCAAUAUUACGAGCA	-2.1 ± 0.5	–
CAUAAGCAAUAUUACGUACC	–	-1.85 ± 0.68
CCGGAGCAAUAUUACGCCUC	-4.49 ± 1	–
GCUGAGCAAUAUUACGACGC	-4.93 ± 0.58	–
CGUGAGCAAUAUUACGCGUG	-2 ± 0.13	-0.684 ± 0.1
ACCUAGCAAUAUUACGCCAG	–	-1.92 ± 0.52
UCCUAGCAAUAUUACGCUUU	-4.44 ± 0.72	–
UUGAAGCAAUAUUACGUUAC	-4.79 ± 0.58	–
CUCGAGCAAUAUUACGAAUC	-3.12 ± 0.62	-4.24 ± 1
UCUCAGCAAUAUUACGAUCC	-4.15 ± 0.59	–
ACGGAGCAAUAUUACGGACC	-4.4 ± 1	–
AUUAAGCAAUAUUACGCAAC	-2.99 ± 0.53	-2.14 ± 0.56
CAUUAGCAAUAUUACGCCAU	-4.05 ± 1	-2.04 ± 0.65
CGGGAGCAAUAUUACGGACC	-4.05 ± 1	-1.32 ± 0.87
CGGUAGCAAUAUUACGUGAC	-4.99 ± 0.59	–
ACAUAGCAAUAUUACGAAGC	-3.98 ± 0.52	–
GUUUAGCAAUAUUACGCCAU	–	-1.9 ± 0.69
UUCAAGCAAUAUUACGAAGC	-3.51 ± 0.6	-1.81 ± 0.62
AAUUAGCAAUAUUACGGGUU	-1.4 ± 0.12	-0.955 ± 0.12

Sequence	self-splicing fitness (ln) (30 °C)	self-splicing fitness (ln) (37 °C)
ACUCAGCAAUAUUACGAUAA	-1.25 ± 0.078	-0.67 ± 0.097
GCUGAGCAAUAUUACGCACG	-1.96 ± 1.2	-0.797 ± 0.52
GCGCAGCAAUAUUACGCGCU	-3.52 ± 0.54	-1.41 ± 0.28
CCGCAGCAAUAUUACGCGUU	-3.51 ± 0.14	-2.29 ± 0.14
UCUGAGCAAUAUUACGGCCC	-0.638 ± 0.93	-0.906 ± 0.61
GUUCAGCAAUAUUACGUACC	-2.66 ± 1.1	0.255 ± 0.81
GAUGAGCAAUAUUACGCUCC	–	-2.64 ± 0.54
UUGAAGCAAUAUUACGUCCC	-2.36 ± 1.2	-1.51 ± 0.84
GGACAGCAAUAUUACGCCAC	–	-1.74 ± 0.6
UGAAAGCAAUAUUACGCAUU	–	-3.87 ± 0.59
CAGAAGCAAUAUUACGCUAC	–	-0.075 ± 0.55
GGUUAGCAAUAUUACGCCGC	–	-0.888 ± 0.63
GCUGAGCAAUAUUACGAGAA	-1.8 ± 0.55	-2.18 ± 0.56
AGCCAGCAAUAUUACGAGUC	-5.07 ± 0.71	–
CUGGAGCAAUAUUACGAAGC	-3.94 ± 0.61	-3.3 ± 0.74
CCGAAGCAAUAUUACGAAUA	-2.66 ± 0.24	-2.49 ± 0.21
GCUUAGCAAUAUUACGAGGC	-3.02 ± 0.62	–
CAGAAGCAAUAUUACGCCCC	-2.56 ± 0.65	-1.47 ± 1.2
CGUUAGCAAUAUUACGCCCG	–	-0.337 ± 1

Sequence	self-splicing fitness (ln) (30 °C)	self-splicing fitness (ln) (37 °C)
UCUCAGCAAUAUUACGCAAC	–	-2.54 ± 0.62
AGUUAGCAAUAUUACGUCAC	-3.73 ± 0.6	–
AUUGAGCAAUAUUACGAGUA	-3.25 ± 0.66	-1.59 ± 0.56
AGAGAGCAAUAUUACGAUAC	-3.35 ± 0.8	-1.26 ± 0.74
UCCGAGCAAUAUUACGGCGC	-4.48 ± 0.59	–
GCGUAGCAAUAUUACGUCAA	-2.73 ± 0.53	–
CAUAAGCAAUAUUACGCCGC	-2.82 ± 0.38	-1.59 ± 0.47
UUGUAGCAAUAUUACGCCUC	–	-2.39 ± 1.1
CUUGAGCAAUAUUACGCCGA	-4.15 ± 0.73	–
UUAAAGCAAUAUUACGAGUC	-3.69 ± 0.73	-2.23 ± 0.55
CGAGAGCAAUAUUACGAAUA	-3.09 ± 0.79	-2.49 ± 0.54
CCCAAGCAAUAUUACGAUCC	-4.89 ± 0.58	–
CUCGAGCAAUAUUACGCAUU	–	-3.97 ± 0.51
AGCAAGCAAUAUUACGUUUA	-2.1 ± 0.13	-1.96 ± 0.15
GACUAGCAAUAUUACGCAGC	-3.5 ± 0.23	-2.2 ± 0.31
UCCCAGCAAUAUUACGCCCC	–	-0.234 ± 1.4
UGCUAGCAAUAUUACGGAGC	-0.54 ± 0.76	–
GCAAAGCAAUAUUACGCCGC	-3.9 ± 0.74	-2.54 ± 0.62
AGCUAGCAAUAUUACGGACA	-1.06 ± 0.12	0.0203 ± 0.15

Whole records from above:
CUUGAGCAAUAUUACGCCGA as listed: self-splicing fitness (ln) (30 °C) = -4.15 ± 0.73
UUGUAGCAAUAUUACGCCUC as listed: self-splicing fitness (ln) (37 °C) = -2.39 ± 1.1
